These are yes or no findings as the source states them, for the method shown. Binding seen in cells or lysates may run through a third protein. Some entries that bind do so weakly or less than the wild type.
Target: Vps15 (mouse (endogenous in ST-Q7 and ST-Q111 cells)) (UniProt Q8VD65)
Test: proximity ligation

Amino acid sequences for entries named in this document (tags omitted).
UniProt Q8VD65: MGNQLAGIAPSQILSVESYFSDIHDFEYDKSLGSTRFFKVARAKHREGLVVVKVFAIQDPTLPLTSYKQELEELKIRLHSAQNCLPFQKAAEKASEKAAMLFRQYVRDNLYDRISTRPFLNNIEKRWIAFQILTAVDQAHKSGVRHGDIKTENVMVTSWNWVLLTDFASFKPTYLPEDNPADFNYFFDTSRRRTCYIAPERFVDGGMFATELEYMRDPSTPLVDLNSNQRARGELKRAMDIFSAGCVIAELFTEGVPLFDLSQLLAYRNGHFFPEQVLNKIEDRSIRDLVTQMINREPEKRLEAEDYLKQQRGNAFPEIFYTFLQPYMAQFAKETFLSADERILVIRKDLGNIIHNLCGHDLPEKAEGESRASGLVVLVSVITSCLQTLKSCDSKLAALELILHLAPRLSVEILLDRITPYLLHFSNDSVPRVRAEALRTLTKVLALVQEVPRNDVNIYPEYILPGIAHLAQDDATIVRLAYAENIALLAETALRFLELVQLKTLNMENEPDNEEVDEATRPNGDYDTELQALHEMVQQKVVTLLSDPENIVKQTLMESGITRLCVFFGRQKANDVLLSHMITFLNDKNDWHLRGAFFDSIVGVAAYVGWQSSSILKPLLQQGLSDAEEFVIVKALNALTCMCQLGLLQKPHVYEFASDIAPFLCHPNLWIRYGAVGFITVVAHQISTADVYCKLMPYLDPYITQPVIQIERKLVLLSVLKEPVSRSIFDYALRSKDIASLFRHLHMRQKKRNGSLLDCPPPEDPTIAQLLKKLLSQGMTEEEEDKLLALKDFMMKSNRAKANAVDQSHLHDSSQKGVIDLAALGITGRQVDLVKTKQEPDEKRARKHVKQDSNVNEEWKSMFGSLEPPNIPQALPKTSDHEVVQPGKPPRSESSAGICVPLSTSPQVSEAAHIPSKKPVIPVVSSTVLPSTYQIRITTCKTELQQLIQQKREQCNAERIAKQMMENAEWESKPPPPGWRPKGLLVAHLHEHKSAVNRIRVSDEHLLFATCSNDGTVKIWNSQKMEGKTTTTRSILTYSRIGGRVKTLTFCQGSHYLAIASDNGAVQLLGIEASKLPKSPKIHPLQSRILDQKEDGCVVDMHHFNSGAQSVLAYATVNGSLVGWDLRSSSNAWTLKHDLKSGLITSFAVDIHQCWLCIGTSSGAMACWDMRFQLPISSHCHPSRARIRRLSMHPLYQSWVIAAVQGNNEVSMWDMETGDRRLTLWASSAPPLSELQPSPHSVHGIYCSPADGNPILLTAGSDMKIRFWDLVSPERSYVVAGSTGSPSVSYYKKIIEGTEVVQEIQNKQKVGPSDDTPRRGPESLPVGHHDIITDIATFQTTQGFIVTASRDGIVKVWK
UniProt O88597: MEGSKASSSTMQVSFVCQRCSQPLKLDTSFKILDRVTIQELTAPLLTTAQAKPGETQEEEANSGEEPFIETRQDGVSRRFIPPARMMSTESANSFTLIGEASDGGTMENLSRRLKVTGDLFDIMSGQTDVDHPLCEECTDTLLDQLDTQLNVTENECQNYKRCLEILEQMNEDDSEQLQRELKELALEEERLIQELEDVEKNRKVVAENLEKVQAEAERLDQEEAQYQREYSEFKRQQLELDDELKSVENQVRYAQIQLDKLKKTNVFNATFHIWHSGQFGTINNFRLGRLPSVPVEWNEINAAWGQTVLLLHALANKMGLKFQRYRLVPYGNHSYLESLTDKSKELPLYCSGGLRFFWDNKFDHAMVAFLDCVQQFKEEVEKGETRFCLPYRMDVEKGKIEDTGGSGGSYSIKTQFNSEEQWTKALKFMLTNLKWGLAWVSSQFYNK

- binding: binds
Substance: Beclin 1 (from UniProt O88597 1-448)
